For 57 compounds, AC50 results are on record in PubChem BioAssay AID1487 (National Center for Advancing Translational Sciences (NCATS), 2009).

“And” between values parts separate entries of the source, which are not always exact repeats. Equal values may be shown once. Some of the results follow. These are further read-outs of the screen, such as a control signal, another cell line or another target. No call is given for them. Most of these compounds were active or inconclusive in the main read-out, so they are no random draw. Potencies come from curve fits of mixed quality, noted in brackets.

This test can be described thus: qHTS Assay for Modulators of Lamin A Splicing. Conditions: HeLa LMNA splicing GFP/RFP minigene ratio, 48 h. Put shortly: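 S3 HeLa stable clones carrying a lamin A-EGFP splicing minigene plus DsRed2 were seeded at 600 cells/well in Opti-MEM with 2% FBS, pin-dosed and incubated 48 h at 37°C. Acumen cytometry (488 nm) gave the GFP/RFP total-intensity ratio.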
(In qHTS, concentration-response curves come from the screen itself.)

Setting [1] is: measured here: RFP viability control channel.
Where [2] appears, read: measured here: GFP splicing reporter channel.

Broadly, the AC50 is the midpoint of the concentration-response curve, whichever way the signal moves. For the compound `CCOc1cc(S(=O)(=O)n2cc(-c3ccc(F)cc3)c(N)n2)cc(OCC)c1OCC`, the AC50 under setting [1] was 7.08 µM [rising, single point].
Regarding `COc1ccc(C2SCCN2S(=O)(=O)c2ccc(NC(C)=O)cc2)cc1` (stereo unspecified), the concentration at half-maximal activity (AC50) under setting [1] is 22.4 µM [rising, single point].
Turning to `COc1ccccc1OS(=O)(=O)c1ccc(NC(C)=O)cc1`, the AC50 was 1.12 µM [falling, partial curve, poor fit] under setting [2] and 0.0398 µM [falling, full curve] under setting [1].
For `Cc1cc(=O)oc2ccc(OCC(=O)N(Cc3ccc(F)cc3)Cc3ccco3)cc12`, the AC50 under setting [2] is 10 µM [rising, partial curve] and the AC50 under setting [1] is 11.2 µM [rising, single point].
Turning to `Cc1cc(O)c(C(c2cccc(F)c2)N2CCC(C)CC2)c(=O)n1Cc1ccco1` (stereo unspecified), the AC50 under setting [1] was 22.4 µM [rising, single point].
As to `CN(c1cccc(NC(=O)COc2ccc(Cl)cc2Cl)c1)S(C)(=O)=O`, under setting [1], the concentration at half-maximal activity (AC50) was 35.5 µM [rising, single point].
For `C[C@]1(C(=O)NCCc2c[nH]c3ccccc23)C=C[C@@H](Cc2ccccc2)N1C(=O)c1ccccc1`, the AC50 runs as follows: under setting [2], 1.26 µM [rising, full curve, poor fit]; under setting [1], 4.47 µM [rising, partial curve, poor fit].
As for `Brc1ccc2c(c1)C(C1=NCCN1)c1ccccc1CS2` (stereo unspecified), the AC50 under setting [1] was 2.82 µM [rising, full curve].
For `Oc1ccccc1C=Nc1ccccc1-c1nc2ccccc2[nH]1`, under setting [1], the AC50 was 7.94 µM [rising, partial curve].
Still for that read-out and setting: then `O=C(CSc1nc2c(c(=O)[nH]1)CN(Cc1ccc(F)cc1)CC2)Nc1ccc(F)cc1`, with 7.08 µM [rising, partial curve]; and `C=CCSc1nnc2nc3c(nn12)c1cc(C)ccc1n3CC=C`, with 25.1 µM [rising, single point].
For the compound `CC(C)(C)CC(=O)NCc1cccs1`, the AC50 under setting [2] was 0.447 µM [falling, partial curve].
As for `COc1ccc(C(=O)NCC(c2cccnc2)N2CCN(c3ccc(F)cc3)CC2)cc1` (stereo unspecified), the AC50 runs as follows: under setting [2], 35.5 µM [falling, single point]; under setting [1], 35.5 µM [falling, partial curve].
With `Cc1cc(C)cc(N2C(=O)c3nccnc3C2=O)c1`, under setting [1], the AC50 is 35.5 µM [falling, single point].
Take `COc1cccc(OCc2nnc(-c3cccs3)o2)c1`: the AC50 under setting [2] is 35.5 µM [rising, single point].
Regarding `CCCCOc1cccc(C(=O)N(Cc2ccco2)C2CCS(=O)(=O)C2)c1` (stereo unspecified), under setting [2], the AC50 is 0.112 µM [falling, single point].
Regarding `Cc1ccccc1NC(=S)N(CCCN1CCCCC1)Cc1ccco1`, under setting [1], the concentration at half-maximal activity (AC50) was 0.178 µM [rising, full curve, poor fit].
Take `Cc1ccc(-n2c(SCc3ccccc3F)nc3[nH]ncc3c2=O)cc1C`: the AC50 under setting [2] was 2.82 µM [rising, partial curve].
For `CCN(CC)S(=O)(=O)c1ccc(N2CCCCC2)c(C(=O)Nc2ccccc2N2CCOCC2)c1`, the concentration at half-maximal activity (AC50) under setting [1] is 7.08 µM [rising, partial curve].
Regarding `CCOC(=O)C1=C(C)N(CC(C)C)C(=O)C1`, under setting [2], the AC50 is 20 µM [rising, single point].
With `O=C1CC(c2ccc(Cl)cc2)SC(N(c2ccccc2)c2ccccc2)=N1` (stereo unspecified), under setting [1], the AC50 was 6.31 µM [rising, single point].
For `COC(=O)CN1C(=S)N(Cc2ccccc2)C(=O)C1CC(=O)Nc1ccc(OC)cc1` (stereo unspecified), under setting [1], the AC50 was 22.4 µM [rising, partial curve, poor fit].
On to `CC1NC(=O)NC1CCCCCC(=O)Nc1ccc(F)cc1` (stereo unspecified), for which the AC50 by setting is: under setting [2], 0.00398 µM [falling, full curve, poor fit]; under setting [1], 3.55 µM [falling, partial curve, poor fit].
Turning to `C=CCc1ccccc1OCC(O)CN1CCN(c2ccc(OC)cc2)CC1` (stereo unspecified), under setting [1], the AC50 was 11.2 µM [rising, single point].
Same read-out and setting: then `COC(=O)CN1C(=O)CC(C)(C)Sc2ccccc21`, with 35.5 µM [falling, partial curve, poor fit]; and `O=C1CCCN1c1ccc(S(=O)(=O)NCCOc2ccccc2)cc1`, with 14.1 µM [rising, partial curve].
As for `O=C(COC(=O)c1cc(Cl)nc2ccccc12)c1ccc(Cl)cc1`, the AC50 under setting [2] was 0.0501 µM [falling, full curve, poor fit].
On to `CCCC1S/C(=N/N=C/c2ccc(OC)cc2)N(Cc2ccccc2)C1=O` (stereo unspecified), for which, under setting [1], the AC50 is 15.8 µM [rising, partial curve].
As for `COC(=O)c1c(NC(=O)c2ccc(S(=O)(=O)N3CCCCC3)cc2)sc2c1CCN(C)C2`, the AC50 is 25.1 µM [rising, partial curve, poor fit] under setting [2] and 35.5 µM [falling, single point] under setting [1].
As for `Cc1cccc(-c2nc3sc(C)cc3c(=O)o2)c1`, under setting [2], the AC50 is 0.02 µM [rising, full curve, poor fit].
For the compound `O=C(Nc1nccs1)c1cc(N2CCOCC2)nc2ccccc12`, the AC50 under setting [1] was 2.51 µM [rising, partial curve, poor fit].
The same measure, in the same setting: then `O=C(NC12CC3CC(CC(C3)C1)C2)c1ccc(-c2ccccc2Cl)o1`, with 20 µM [falling, partial curve].
As for `CCc1c(C)[nH]c2c1C(=O)[C@H](CN1CCOCC1)CC2`, the AC50 is 1 µM [falling, full curve] under setting [2] and 1.26 µM [falling, full curve] under setting [1].
As to `N#CCCn1cc(C(=O)Nc2ccc([N+](=O)[O-])cc2)c(-c2cc3ccccc3o2)n1`, the AC50 was 10 µM [falling, partial curve] under setting [2] and 20 µM [falling, partial curve] under setting [1].
Turning to `O=C(N/N=C/c1c[nH]c2ccccc12)c1cc(-c2cccc3ccccc23)n[nH]1`, the AC50 under setting [1] is 11.2 µM [rising, partial curve, poor fit].
For the compound `CC(CCc1ccccc1)NC(=O)c1nnc(Cc2ccc(Cl)cc2)o1` (stereo unspecified), the AC50 under setting [1] was 35.5 µM [rising, single point].
On to `COCCn1c(-c2ccccc2)cnc1N`, for which, under setting [1], the AC50 is 35.5 µM [falling, single point].
As to `COc1cccc(C(=O)C2CCCN(C/C=C/c3ccccc3OC)C2)c1` (stereo unspecified), the AC50 runs as follows: under setting [2], 15.8 µM [falling, single point]; under setting [1], 14.1 µM [falling, partial curve, poor fit].
Turning to `CC(C)=CCc1c(O)ccc(C(=O)Cc2ccccc2)c1O`, the AC50 under setting [2] is 14.1 µM [rising, single point] and the AC50 under setting [1] was 17.8 µM [rising, single point].
In the case of `Cc1ccc(NC(=O)N(Cc2ccc3c(c2)OCO3)Cc2cc3cc4c(cc3[nH]c2=O)OCCO4)cc1`, the AC50 under setting [1] was 0.00891 µM [rising, full curve, poor fit].
As for `CCCc1cc(=O)oc2cc(C)cc(OC(=O)c3ccco3)c12`, the AC50 under setting [2] was 10 µM [rising, partial curve] and the AC50 under setting [1] is 15.8 µM [rising, single point].
Turning to `Fc1ccc(-n2ncc3c(Nc4ccc(Oc5ccc(Cl)cc5)cc4)ncnc32)cc1`, the AC50 is 35.5 µM [falling, single point] under setting [2] and 35.5 µM [falling, single point] under setting [1].
For the compound `Cc1ccc(-n2ncc3c(NCCc4ccccc4)ncnc32)cc1`, the AC50 by setting is: under setting [2], 0.01 µM [falling, full curve, poor fit]; under setting [1], 0.01 µM [falling, full curve, poor fit].
On to `CCN1/C(=C/c2cc[n+](CCCS(=O)(=O)[O-])c3ccccc23)Sc2ccccc21`, for which the AC50 under setting [2] was 0.0501 µM [falling, full curve] and the AC50 under setting [1] is 0.0631 µM [falling, full curve, poor fit].
With `N=c1ccn2c(n1)O[C@@H]1[C@@H](O)[C@H](CO)O[C@H]12`, the AC50 under setting [2] is 0.00794 µM [falling, full curve, poor fit] and the AC50 under setting [1] is 0.0501 µM [rising, full curve, poor fit].
Regarding `FC(F)(F)c1cccc(N2CCN(C(=S)NC3CCCC3)CC2)c1`, the AC50 reads like this: under setting [2], 12.6 µM [rising, single point]; under setting [1], 15.8 µM [rising, partial curve].
Regarding `CN1C(=O)CSc2ccc(NC(=O)Nc3ccccn3)cc21`, under setting [1], the AC50 is 12.6 µM [falling, partial curve].
As for `Cc1ccc[n+](Cc2ccc([N+](=O)[O-])cc2)c1`, under setting [1], the AC50 is 0.02 µM [falling, full curve].
Consider `Cc1[nH]c(C)c(Cl)c(=O)c1Cl`, for which, under setting [2], the AC50 is 0.00251 µM [falling, full curve, poor fit].
As to `Cc1ccc(OCc2nnc(N)s2)cc1`, the AC50 under setting [2] was 35.5 µM [falling, single point].
For the compound `O=C(NNc1ccccc1[N+](=O)[O-])Nc1ccc(Cl)c(Cl)c1`, the AC50 is 4.47 µM [rising, partial curve, poor fit] under setting [2] and 20 µM [rising, partial curve] under setting [1].
With `CCOC(=O)[C@H]1NN=C(C(=O)OC)[C@@H]1c1ccccc1`, the AC50 under setting [2] is 3.16 µM [falling, partial curve, poor fit].
`COC(=O)c1sccc1N/N=C/c1cccc(Oc2ccccc2)c1`: under setting [1], the AC50 is 35.5 µM [rising, single point].
On the same count and under the same terms, under `COc1cc(NC(=O)CCCSc2nc(-c3ccco3)cc(C(F)(F)F)n2)cc(OC)c1OC` stands 17.8 µM [rising, partial curve]; under `OC(COc1ccc2c(c1)CCC2)CN1CCN(c2ccccc2F)CC1` (stereo unspecified), 17.8 µM [rising, partial curve, poor fit].
On to `CN1c2ccccc2-c2nc3ccccc3n2C1c1ccco1` (stereo unspecified), for which the AC50 is 10 µM [rising, partial curve] under setting [2] and 11.2 µM [rising, partial curve] under setting [1].
With `CCN(c1ccccc1)S(=O)(=O)c1cc(C(=O)Nc2ccc(Br)cc2)ccc1F`, the AC50 reads like this: under setting [2], 11.2 µM [rising, partial curve] and 2.24 µM [falling, partial curve]; under setting [1], 7.08 µM [rising, partial curve].
